Results from publication PMC7073468, “Small RNA‐binding protein RapZ mediates cell envelope precursor sensing and signaling in Escherichia coli” (The EMBO Journal, 2020).
These are yes or no findings as the source states them, for the method shown. Some entries that bind do so weakly or less than the wild type. Where a sequence is shown, tags or fusion partners need not be part of it.

T1: RapZ, BACTH fusion (T18 or T25) (Escherichia coli) (UniProt P0A894)
T1 sequence: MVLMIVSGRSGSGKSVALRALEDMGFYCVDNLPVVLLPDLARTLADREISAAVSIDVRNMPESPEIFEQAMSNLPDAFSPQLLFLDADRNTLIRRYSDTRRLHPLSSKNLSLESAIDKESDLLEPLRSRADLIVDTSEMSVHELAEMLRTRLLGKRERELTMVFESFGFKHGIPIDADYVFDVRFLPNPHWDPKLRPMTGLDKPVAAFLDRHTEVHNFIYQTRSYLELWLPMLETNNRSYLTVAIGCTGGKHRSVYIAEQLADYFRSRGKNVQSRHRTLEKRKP

T2: RapZ Asp182Ala (full-length), BACTH fusion (Escherichia coli) (UniProt P0A894)
T2 sequence: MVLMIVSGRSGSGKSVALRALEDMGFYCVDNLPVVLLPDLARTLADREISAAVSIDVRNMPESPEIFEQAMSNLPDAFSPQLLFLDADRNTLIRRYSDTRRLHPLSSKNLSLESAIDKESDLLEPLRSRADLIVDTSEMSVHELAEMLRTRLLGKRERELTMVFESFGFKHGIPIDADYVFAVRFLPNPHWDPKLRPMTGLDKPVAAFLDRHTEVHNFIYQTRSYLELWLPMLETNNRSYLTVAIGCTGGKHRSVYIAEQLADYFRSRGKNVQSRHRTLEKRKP


Key:
[1] = target: T1, RapZ, BACTH fusion (T18 or T25) (Escherichia coli); assay: two-hybrid; bacterial adenylate cyclase-based two-hybrid (BACTH); T18 and T25 fusions from pUT18C and pKT25 derivatives in E. coli reporter strain RH785 (MG1655::cyaA derivative) or BTH101, also in a derivative lacking the endogenous qseEGF operon; grown at 28°C with 1 mM IPTG to stationary phase; read-out β-galactosidase activity
[2] = target: T2, RapZ Asp182Ala (full-length), BACTH fusion (Escherichia coli); assay: as above

| binding [1] | binding [2] | Binder |
| --- | --- | --- |
| binds | no binding | QseE, BACTH fusion (T18 or T25) (protein, UniProt P52101 1-475) MKRWPVFPRSLRQLVMLAFLLILLPLLVLAWQAWQSLNALSDQAALVNRTTLIDARRSEAMTNAALEMERSYRQYCVLDDPTLAKVYQSQRKRYSEMLDAHAGVLPDDKLYQALRQDLHNLAQLQCNNSGPDAAAAARLEAFASANTEMVQATRTVVFSRGQQLQREIAERGQYFGWQSLVLFLVSLVMVLLFTRMIIGPVKNIERMINRLGEGRSLGNSVSFSGPSELRSVGQRILWLSERLSWLESQRHQFLRHLSHELKTPLASMREGTELLADQVVGPLTPEQKEVVSILDSSSRNLQKLIEQLLDYNRKQADSAVELENVELAPLVETVVSAHSLPARAKMMHTDVDLKATACLAEPMLLMSVLDNLYSNAVHYGAESGNICLRSSLHGARVYIDVINTGTPIPQEERAMIFEPFFQGSHQRKGAVKGSGLGLSIARDCIRRMQGELYLVDESGQDVCFRIELPSSKNTK |
| binds | no binding | QseF, BACTH fusion (T18 or T25) (protein, UniProt P0AFU4 1-444) MSHKPAHLLLVDDDPGLLKLLGLRLTSEGYSVVTAESGAEGLRVLNREKVDLVISDLRMDEMDGMQLFAEIQKVQPGMPVIILTAHGSIPDAVAATQQGVFSFLTKPVDKDALYQAIDDALEQSAPATDERWREAIVTRSPLMLRLLEQARLVAQSDVSVLINGQSGTGKEIFAQAIHNASPRNSKPFIAINCGALPEQLLESELFGHARGAFTGAVSNREGLFQAAEGGTLFLDEIGDMPAPLQVKLLRVLQERKVRPLGSNRDIDINVRIISATHRDLPKAMARGEFREDLYYRLNVVSLKIPALAERTEDIPLLANHLLRQAAERHKPFVRAFSTDAMKRLMTASWPGNVRQLVNVIEQCVALTSSPVISDALVEQALEGENTALPTFVEARNQFELNYLRKLLQITKGNVTHAARMAGRNRTEFYKLLSRHELDANDFKE |
